Laboratory results as given in PubChem BioAssay AID248 (DTP/NCI, 2004).
The list does not hold the whole screen: it is rich in T/C values a quarter to a half above the control, in often repeated tests (any T/C) and in doses without a T/C. Further doses and runs are listed elsewhere. T/C is the treated group as % of the vehicle group. Some entries give survivors of the animals treated and no T/C: the source holds a T/C of zero for them, seemingly a mark for toxic or unscored doses. Some doses without a T/C left all or most animals alive at the check, yet need not have been tolerated: survival well below the control is almost never listed, so the zero probably covers shortened survival too. Survivors were counted at the toxicity check, usually on the fifth day, unless a day is given; later deaths do not show. Schedules are NCI's codes, read here as Q, the interval in days (D) or hours (H), X, the number of doses. Some entries hold several experiments; the values are given in rising order. Where survival is the endpoint, the PubChem record calls one and a half times the control and up active, and a quarter to a half above the control has no call in these data; cut-offs in other NCI protocols can differ. Some T/C values carry the count of animals alive at the toxicity check (mostly the fifth day); without a count, all were alive then.

System: L1210 leukemia ip in BDF1 mice, survival T/C
Test: NCI In Vivo Anticancer Drug Screen. Data for tumor model L1210 Leukemia (intraperitoneal) in B6D2F1 (BDF1) mice
Settings: T/C endpoint: mean survival time, higher T/C = longer survival
[1] = dose: 200.0 mg/kg/injection, schedule: Q04DX003 (ip), vehicle: saline
[2] = dose: 400.0 mg/kg/injection, schedule: Q04DX003 (ip), vehicle: saline
[3] = dose: 100.0 mg/kg/injection, schedule: Q01DX009 (ip), vehicle: saline with Tween-80
[4] = dose: 200.0 mg/kg/injection, schedule: Q01DX009 (ip), vehicle: saline with Tween-80
[5] = dose: 400.0 mg/kg/injection, schedule: Q01DX009 (ip), vehicle: saline with Tween-80
[6] = dose: 400.0 mg/kg/injection, schedule: Q01DX009 (ip), vehicle: Klucel (hydroxypropylcellulose) (HPC)
[7] = dose: 400.0 mg/kg/injection, schedule: Q04DX002 (ip), vehicle: Klucel (hydroxypropylcellulose) (HPC)
[8] = dose: 200.0 mg/kg/injection, schedule: Q04DX003 (ip), vehicle: saline with Tween-80
[9] = dose: 400.0 mg/kg/injection, schedule: Q04DX003 (ip), vehicle: saline with Tween-80
[10] = dose: 200.0 mg/kg/injection, schedule: Q04DX002 (ip), vehicle: Klucel (hydroxypropylcellulose) (HPC)

For `O=C(O)c1cccc(Nc2ccccc2C(=O)O)c1`, the survivor count (dose: 400.0 mg/kg/injection, schedule: Q01DX001 (ip), vehicle: carboxymethylcellulose (CMC)) was 4 of 4.
`Cc1c(CBr)c2ccccc2[nH]c1=O` was tested, and the survivor count (dose: 400.0 mg/kg/injection, schedule: Q01DX001 (ip), vehicle: other) was 0 of 4.
For `C#CCN(C)C(C)=O`, the survivor count [1] was 2 of 6 and the survivor count [2] was 0 of 6.
With `Cc1c2cnccc2c(C)c2c1c1ccccc1n2CCCN1C(=O)c2ccccc2C1=O` the survivor count [3] was 6 of 6, the survivor count [4] was 6 of 6 and the survivor count [5] was 6 of 6.
In the case of `C=C1C(=O)OC2CCCCC3OC3C12` (centres undefined), the survivor count (dose: 200.0 mg/kg/injection, schedule: Q01DX001 (ip), vehicle: saline with Tween-80) is reported as 0 of 3 and the survivor count (dose: 400.0 mg/kg/injection, schedule: Q01DX001 (ip), vehicle: saline with Tween-80) is reported as 0 of 3.
In the case of `Cc1nccc(=O)[nH]1`, the survivor count (dose: 400.0 mg/kg/injection, schedule: Q01DX009 (ip), vehicle: saline) is reported as 1 of 6.
For `COC(=O)[C@@]12OC[C@]34[C@H]([C@@H](O)[C@@H]1O)[C@@]1(C)CC(=O)C(O)=C(C)[C@@H]1C[C@H]3OC(=O)[C@H](OC(=O)/C=C(\C)C(C)C)[C@@H]24`, the T/C (dose: 0.12 mg/kg/injection, schedule: Q01DX009 (ip), vehicle: saline with Tween-80) was 127 % of control, the T/C (dose: 0.25 mg/kg/injection, schedule: Q01DX009 (ip), vehicle: other, evaluated on day 30) was 129 % of control [9 of 10 alive] and the T/C (dose: 0.25 mg/kg/injection, schedule: Q01DX009 (ip), vehicle: other, evaluated on day 60) was 125 % of control. For the same compound, the T/C (dose: 0.25 mg/kg/injection, schedule: Q01DX009 (ip), vehicle: saline with Tween-80) was 128 % of control, the survivor count (dose: 0.25 mg/kg/injection, schedule: Q03HX024 (ip), vehicle: saline with Tween-80) was 2 of 10 and the T/C (dose: 0.5 mg/kg/injection, schedule: Q01DX009 (ip), vehicle: other) was 128 % of control. The T/C (dose: 0.5 mg/kg/injection, schedule: Q01DX009 (ip), vehicle: saline with Tween-80) was 135 % of control, the survivor count (dose: 0.5 mg/kg/injection, schedule: Q03HX024 (ip), vehicle: other) was 0 of 10 and the survivor count (dose: 0.5 mg/kg/injection, schedule: Q03HX024 (ip), vehicle: saline with Tween-80) was 3 of 10. The T/C (dose: 1.0 mg/kg/injection, schedule: Q01DX009 (ip), vehicle: other) was 127 % of control, the T/C (dose: 1.0 mg/kg/injection, schedule: Q01DX009 (ip), vehicle: saline with Tween-80, evaluated on day 30) was 141 % of control and the T/C (dose: 1.0 mg/kg/injection, schedule: Q01DX009 (ip), vehicle: saline with Tween-80, evaluated on day 60) was 132 % of control [9 of 10 alive]. The survivor count (dose: 2.0 mg/kg/injection, schedule: Q01DX009 (ip), vehicle: other) was 5 of 10, the T/C (dose: 2.0 mg/kg/injection, schedule: Q01DX009 (ip), vehicle: saline with Tween-80) was 128 % of control [9 of 10 alive] and the survivor count (dose: 4000.0 micrograms/kg/injection, schedule: Q01DX009 (ip), vehicle: saline + alcohol) was 4 of 6.
In the case of `C(=NCC(CCN1CCCCC1)(CCN1CCCCC1)c1cccc2ccccc12)C(CCN1CCCCC1)(CCN1CCCCC1)c1cccc2ccccc12`, the survivor count (dose: 100.0 mg/kg/injection, schedule: Q01DX009 (ip), vehicle: Klucel (hydroxypropylcellulose) (HPC)) is reported as 0 of 6, the survivor count (dose: 200.0 mg/kg/injection, schedule: Q01DX009 (ip), vehicle: Klucel (hydroxypropylcellulose) (HPC)) is reported as 0 of 6 and the survivor count [6] is reported as 0 of 6.
With `OCCCN=Cc1ccccc1O.OCCCN=Cc1ccccc1O.[Cu]` the survivor count (dose: 150.0 mg/kg/injection, schedule: Q01DX001 (ip), vehicle: other) was 0 of 6 and the survivor count (dose: 300.0 mg/kg/injection, schedule: Q01DX001 (ip), vehicle: other) was 0 of 6.
`C=C1C(=O)OC2CC(C)C3CC(O)OC(O)C3(C)CC12` (centres undefined) was tested, and the survivor count [3] was 0 of 6, the survivor count [4] was 0 of 6 and the survivor count [5] was 0 of 6.
For `NNC(=O)CNc1cccc(F)c1`, the survivor count [7] was 0 of 3.
For `O=C(CCl)Nc1ccc(Br)cc1`, the survivor count [5] was 0 of 6.
For `CCC[N+](CC)(CC)CCOC(=O)C1C2CC3OC(=O)C1C3C2` (centres undefined), the survivor count [1] was 1 of 3 and the survivor count [2] was 1 of 3.
`N#CCc1ccc(-c2ccccc2)cc1` was tested, and the survivor count (dose: 25.0 mg/kg/injection, schedule: Q04DX003 (ip), vehicle: saline with Tween-80) was 6 of 6, the survivor count (dose: 100.0 mg/kg/injection, schedule: Q04DX003 (ip), vehicle: saline with Tween-80) was 2 of 6 and the survivor count [8] was 0 of 6. The survivor count [9] was 0 of 6.
In the case of `CC(=O)C(CN(C)C)c1ccccc1` (centres undefined), the survivor count (dose: 100.0 mg/kg/injection, schedule: Q01DX009 (ip), vehicle: saline) is reported as 6 of 6.
`CCS[P+](NC1CCCCC1)(NC1CCCCC1)NC1CCCCC1` was tested, and the survivor count [3] was 1 of 3, the survivor count (dose: 100.0 mg/kg/injection, schedule: Q04DX002 (ip), vehicle: saline with Tween-80) was 1 of 3 and the survivor count (dose: 200.0 mg/kg/injection, schedule: Q04DX002 (ip), vehicle: saline with Tween-80) was 0 of 3. The survivor count (dose: 400.0 mg/kg/injection, schedule: Q04DX002 (ip), vehicle: saline with Tween-80) was 0 of 3.
With `CC(CC(CCC(CC(C)CC(C)(C)C)N(C)C)N(C)C)CC(C)(C)C` (centres undefined) the survivor count [10] was 1 of 3 and the survivor count [7] was 2 of 3.
`CN(Cc1cnc2nc(N)cc(N)c2n1)c1ccc(C(=O)NC(CCC(=O)O)C(=O)O)cc1` (centres undefined) was tested, and the T/C (dose: 16.0 mg/kg/injection, schedule: Q01DX009 (ip), vehicle: other) was 125 % of control, the T/C (dose: 25.0 mg/kg/injection, schedule: Q01DX009 (ip), vehicle: other) was 143 % of control and the survivor count (dose: 200.0 mg/kg/injection, schedule: Q01DX009 (ip), vehicle: other) was 1 of 6. The survivor count (dose: 400.0 mg/kg/injection, schedule: Q01DX009 (ip), vehicle: other) was 0 of 6.
With `CC/C=C(\C)C1(CCC)C(N)=NC(=O)N=C1N` the survivor count (dose: 300.0 mg/kg/injection, schedule: Q01DX001 (ip), vehicle: carboxymethylcellulose (CMC)) was 0 of 6.
`CC(=O)Oc1ccccc1C(C)=O` was tested, and the survivor count [6] was 2 of 6.
In the case of `Nc1csc2cccc[n+]12`, the survivor count (dose: 50.0 mg/kg/injection, schedule: Q04DX003 (ip), vehicle: saline) is reported as 6 of 6, the survivor count (dose: 150.0 mg/kg/injection, schedule: Q04DX003 (ip), vehicle: saline) is reported as 5 of 6 and the survivor count (dose: 200.0 mg/kg/injection, schedule: Q01DX001 (ip), vehicle: saline) is reported as 0 of 6. The survivor count (dose: 225.0 mg/kg/injection, schedule: Q04DX003 (ip), vehicle: saline) was 0 of 6, the survivor count (dose: 335.0 mg/kg/injection, schedule: Q04DX003 (ip), vehicle: saline) was 0 of 6 and the survivor count (dose: 400.0 mg/kg/injection, schedule: Q01DX001 (ip), vehicle: saline) was 0 of 6.
In the case of `CSc1ncnc2n[nH]c(Br)c12`, the survivor count (dose: 200.0 mg/kg/injection, schedule: Q01DX005 (ip), vehicle: saline) is reported as 5 of 5.
In the case of `c1ccc(C(=C2CCC2)c2c3ccccc3cc3ccccc23)cc1`, the survivor count (dose: 300.0 mg/kg/injection, schedule: Q01DX001 (ip), vehicle: Klucel (hydroxypropylcellulose) (HPC)) is reported as 6 of 6.
With `Cc1cc(N)c(C)c(C)c1O` the survivor count [8] was 1 of 6 and the survivor count [9] was 0 of 6.
`Cc1cc(CCN)c(C)c2c1sc1ccccc12` was tested, and the survivor count (dose: 150.0 mg/kg/injection, schedule: Q01DX001 (ip), vehicle: saline) was 0 of 6 and the survivor count (dose: 300.0 mg/kg/injection, schedule: Q01DX001 (ip), vehicle: saline) was 0 of 6.
With `CC1(C)N=C(N)N=C(N)N1c1cccc(OCCOc2ccccc2[N+](=O)[O-])c1` the survivor count (dose: 100.0 mg/kg/injection, schedule: Q04DX002 (ip), vehicle: Klucel (hydroxypropylcellulose) (HPC)) was 3 of 6 and 2 of 3, the survivor count [10] was 0 of 3 and 0 of 6 and the survivor count [7] was 0 of 3 and 0 of 6.
